This assay deals with Cdc42Δ7Q61L (human) (UniProt P60953). Briefly: NMR titration; 15N and 13C HSQC at 25 °C in 50 mM sodium phosphate, pH 5.5, 25 mM NaCl, 5 mM MgCl2, 5 mM DTT, 10% D2O; 15N-HR1 with unlabelled Cdc42Δ7Q61L·GMPPNP, or 15N-Cdc42Δ7Q61L·GMPPNP with unlabelled HR1 and/or N-WASP GBD; both purified.

Protein sequences, listed by entry. Tags and fused reporters are not part of them. Lines headed by an entry give the natural chain unless they say otherwise; changes in a name come on top. Chains listed by the source or under a name are the forms on record and can include a tag or linker.
Cdc42Δ7Q61L (P60953, form named): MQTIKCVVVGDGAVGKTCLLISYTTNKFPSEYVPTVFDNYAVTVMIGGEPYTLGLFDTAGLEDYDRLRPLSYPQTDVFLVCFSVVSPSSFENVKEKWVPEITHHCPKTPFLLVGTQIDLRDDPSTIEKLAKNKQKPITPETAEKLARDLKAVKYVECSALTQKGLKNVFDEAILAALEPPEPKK

These are yes or no findings as the source states them, for the method shown. Some entries that bind do so weakly or less than the wild type. Where a sequence is shown, tags or fusion partners need not be part of it.

B1: TOCA1 HR1 domain (residues 330–426), untagged (domain or fragment, UniProt Q6GUF4 330-426)
chain: KGPALEDFSHLPPEQRRKRLQQRIDELSRELQKEMDQKDALNKMKDVYEKNPQMGDPSSLHPKIAETTSNIERLRMEIHKNEAWLSEVEGKVSQRSE
Turning to B1, the binding entry is “binds weakly”.

The values above are taken from paper PMC4919469.
